Results as given in patent US20090247646A1, “USE OF RESVERATROL AND DERIVATIVES THEREOF FOR PROMOTING THE WELLNESS STATE IN MAMMALS” (priority 2006, published 2009).
The source gives many values for each of these; only a part stands here.

System: gene expression in heart tissue
Assay: Genome-wide gene expression in heart tissue of old mice fed a resveratrol-supplemented diet (Affymetrix Mouse Genome 430 2.0 array)
Format: in vivo

SMILES: Oc1ccc(/C=C/c2cc(O)cc(O)c2)cc1 [resveratrol, 3,4′,5-Trihydroxy-trans-stilbene]
- Effect of resveratrol on changeing gene expression from old to young profile (1429859_a_at ADP-ribosylation factor-like 2 binding protein): 60-70%
- Effect of resveratrol on changeing gene expression from old to young profile (1430332_a_at beta-glucuronidase): 80-90%
- Effect of resveratrol on changeing gene expression from old to young profile (1430421_a_at hypothetical protein MGC18837): 90-100%
- Effect of resveratrol on changeing gene expression from old to young profile (1430519_a_at CCR4-NOT transcription complex, subunit 7): <60%
- Effect of resveratrol on changeing gene expression from old to young profile (1430533_a_at catenin beta): 80-90%
- Effect of resveratrol on changeing gene expression from old to young profile (1430536_a_at Mus musculus transcribed sequence with strong similarity to protein prf: 2208314A (H. sapiens) 2208314A ERH gene [Homo sapiens] [BLAST]): >100%
- Effect of resveratrol on changeing gene expression from old to young profile (1430976_a_at mitochondrial ribosomal protein L9): 80-90%
- Effect of resveratrol on changeing gene expression from old to young profile (1430980_a_at eukaryotic translation initiation factor 4A1): >100%
- Effect of resveratrol on changeing gene expression from old to young profile (1430999_a_at short coiled-coil protein): >100%
- Effect of resveratrol on changeing gene expression from old to young profile (1431012_a_at peroxisomal delta3, delta2-enoyl-Coenzyme A isomerase): 90-100%
- Effect of resveratrol on changeing gene expression from old to young profile (1431030_a_at ring finger protein 14): 70-80%
- Effect of resveratrol on changeing gene expression from old to young profile (1431255_at calreticulin 3): >100%
- Effect of resveratrol on changeing gene expression from old to young profile (1431345_a_at TATA box binding protein (Tbp)-associated factor, RNA polymerase I, B): 70-80%
- Effect of resveratrol on changeing gene expression from old to young profile (1431431_a_at nitrogen fixation gene 1 (S. cerevisiae)): 90-100%
- Effect of resveratrol on changeing gene expression from old to young profile (1431507_a_at synaptojanin 2 binding protein): >100%
- Effect of resveratrol on changeing gene expression from old to young profile (1431592_a_at SH3-domain kinase binding protein 1): 70-80%
- Effect of resveratrol on changeing gene expression from old to young profile (1431645_a_at guanosine diphosphate (GDP) dissociation inhibitor 3): <60%
- Effect of resveratrol on changeing gene expression from old to young profile (1431746_a_at ubiquitin-activating enzyme E1C [BLAST]): >100%
- Effect of resveratrol on changeing gene expression from old to young profile (1431962_a_at Stam binding protein): >100%
- Effect of resveratrol on changeing gene expression from old to young profile (1432016_a_at isocitrate dehydrogenase 3 (NAD+) alpha [BLAST]): >100%
- Effect of resveratrol on changeing gene expression from old to young profile (1432042_a_at smu-1 suppressor of mec-8 and unc-52 homolog (C. elegans)): 90-100%
- Effect of resveratrol on changeing gene expression from old to young profile (1432211_a_at f-box only protein 9): 60-70%
- Effect of resveratrol on changeing gene expression from old to young profile (1432344_a_at amyloid beta (A4) precursor-like protein 2): <60%
- Effect of resveratrol on changeing gene expression from old to young profile (1432488_a_at splicing factor 3a, subunit 3, 60 kDa): <60%
- Effect of resveratrol on changeing gene expression from old to young profile (1433461_at splicing factor 3b, subunit 2): >100%
- Effect of resveratrol on changeing gene expression from old to young profile (1433539_at COMM domain containing 3): 90-100%
- Effect of resveratrol on changeing gene expression from old to young profile (1433576_at methionine adenosyltransferase II, alpha): 60-70%
- Effect of resveratrol on changeing gene expression from old to young profile (1433751_at solute carrier family 39 (zinc transporter), member 10): 80-90%
- Effect of resveratrol on changeing gene expression from old to young profile (1434008_at Mus musculus, clone IMAGE: 1282676, mRNA): <60%
- Effect of resveratrol on changeing gene expression from old to young profile (1434044_at hypothetical protein C130032F08): 90-100%
- Effect of resveratrol on changeing gene expression from old to young profile (1434105_at EPM2A (laforin) interacting protein 1): 60-70%
- Effect of resveratrol on changeing gene expression from old to young profile (1434189_at stromal antigen 1): >100%
- Effect of resveratrol on changeing gene expression from old to young profile (1434254_at hypothetical protein E430025L19): >100%
- Effect of resveratrol on changeing gene expression from old to young profile (1434268_at adenosine deaminase, RNA-specific): 80-90%
- Effect of resveratrol on changeing gene expression from old to young profile (1434278_at No description found): 60-70%
- Effect of resveratrol on changeing gene expression from old to young profile (1434302_at No description found): >100%
- Effect of resveratrol on changeing gene expression from old to young profile (1434416_a_at small optic lobes homolog (Drosophila)): >100%
- Effect of resveratrol on changeing gene expression from old to young profile (1434516_at hypothetical protein 5730458D16): >100%
- Effect of resveratrol on changeing gene expression from old to young profile (1434537_at solute carrier organic anion transporter family, member 3a1): 80-90%
- Effect of resveratrol on changeing gene expression from old to young profile (1434548_at tumor differentially expressed 1): 70-80%
- Effect of resveratrol on changeing gene expression from old to young profile (1434560_at KIAA1037 protein): >100%
- Effect of resveratrol on changeing gene expression from old to young profile (1434580_at ectonucleotide pyrophosphatase/phosphodiesterase 4): 60-70%
- Effect of resveratrol on changeing gene expression from old to young profile (1434652_at Cdc42 binding protein kinase beta): >100%
- Effect of resveratrol on changeing gene expression from old to young profile (1434815_a_at expressed sequence AI874665): >100%
- Effect of resveratrol on changeing gene expression from old to young profile (1434834_at Nck, Ash and phospholipase C binding protein): >100%
- Effect of resveratrol on changeing gene expression from old to young profile (1434893_at ATPase, Na+/K+ transporting, alpha 2 polypeptide [BLAST]): >100%
- Effect of resveratrol on changeing gene expression from old to young profile (1434924_at PHD finger protein 2): >100%
- Effect of resveratrol on changeing gene expression from old to young profile (1434935_at expressed sequence C79663): 70-80%
- Effect of resveratrol on changeing gene expression from old to young profile (1434937_at pam, highwire, rpm 1 [BLAST]): 80-90%
- Effect of resveratrol on changeing gene expression from old to young profile (1435032_at golgi autoantigen, golgin subfamily b, macrogolgin 1): 90-100%
- Effect of resveratrol on changeing gene expression from old to young profile (1435129_at protein tyrosine phosphatase 4a2): 70-80%
- Effect of resveratrol on changeing gene expression from old to young profile (1435140_at insulin degrading enzyme): >100%
- Effect of resveratrol on changeing gene expression from old to young profile (1435213_at NHL repeat containing 1): >100%
- Effect of resveratrol on changeing gene expression from old to young profile (1435265_at Mus musculus transcribed sequence with strong similarity to protein sp: P00722 (E. coli) BGAL_ECOLI Beta-galactosidase (Lactase)): 90-100%
- Effect of resveratrol on changeing gene expression from old to young profile (1435518_at RAS related protein 1b): 80-90%
- Effect of resveratrol on changeing gene expression from old to young profile (1435626_a_at homocysteine-inducible, endoplasmic reticulum stress-inducible, ubiquitin-like domain member 1): >100%
- Effect of resveratrol on changeing gene expression from old to young profile (1435652_a_at guanine nucleotide binding protein, alpha inhibiting 2): >100%
- Effect of resveratrol on changeing gene expression from old to young profile (1435679_at optineurin): >100%
- Effect of resveratrol on changeing gene expression from old to young profile (1435730_at Mus musculus transcribed sequences): >100%
- Effect of resveratrol on changeing gene expression from old to young profile (1435893_at very low density lipoprotein receptor): >100%
